{"source": "patent US20090264508", "key": {"[1]": {"biological_target": "von Willebrand Factor (VWF) (Homo sapiens) (UniProt P04275)", "experiment": "SELEX", "conditions": "2'-F pyrimidines, 2'-OH purines (printed 5-hydroxyl); isolated by binding and inhibiting VWF; purified native protein"}, "[2]": {"biological_target": "Coagulation Factor II (prothrombin) (UniProt P00734)", "experiment": "binding assay", "conditions": "binds Factor II minimally; purified native protein"}, "[3]": {"biological_target": "T1, Coagulation Factor VII (UniProt P08709)", "T1 sequence (looked up, limits assumed)": "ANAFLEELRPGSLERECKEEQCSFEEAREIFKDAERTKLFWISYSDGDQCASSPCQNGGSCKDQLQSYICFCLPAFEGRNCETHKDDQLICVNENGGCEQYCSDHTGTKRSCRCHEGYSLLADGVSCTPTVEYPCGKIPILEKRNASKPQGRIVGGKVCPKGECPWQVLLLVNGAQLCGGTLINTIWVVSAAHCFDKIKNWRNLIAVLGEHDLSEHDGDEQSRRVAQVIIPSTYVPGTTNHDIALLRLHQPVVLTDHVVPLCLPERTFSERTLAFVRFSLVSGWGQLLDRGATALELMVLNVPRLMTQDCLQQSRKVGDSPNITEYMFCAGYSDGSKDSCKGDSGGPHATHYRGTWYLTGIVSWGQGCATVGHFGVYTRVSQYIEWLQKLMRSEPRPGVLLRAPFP", "experiment": "binding assay", "conditions": "can also bind Factor VII; purified native protein"}}, "note": "For at least one entry, the source does not settle the construct or the ends of the probe. For some assays here: The comparison behind a weaker result is the experiment's own reference, which may not be listed here. For some assays here: Tags and fusion partners may be left off the protein sequences shown.", "data": [{"sequence": "ACCGCGCUCUCCUGCUUAAGCAGCUAUCAAAUAGCCCACU [Q_W3-6]", "values": [{"measurement": "selection result", "setting": "[1]", "result": "selected"}]}, {"sequence": "AUCGCGCUCUCCUGCUUAAGCAGCUAUCAAAAAGCCCACU [Q-W1-9]", "values": [{"measurement": "selection result", "setting": "[1]", "result": "selected"}]}, {"sequence": "AUCGCGCUCUCCUGCUUAAGCAGCUAUCAAAUAGCCCACU [FM10]", "values": [{"measurement": "selection result", "setting": "[1]", "result": "selected"}]}, {"sequence": "CGAGCCGGACUUCAGCCAGUGAUAUGAUGCGACACACUGC [9D-11]", "values": [{"measurement": "binding result", "setting": "[2]", "result": "binds more weakly"}]}, {"sequence": "CGCGACAGAUCGUAUAAUAGUCAACGCUCUAACCAAUCAC [7K-84]", "values": [{"measurement": "binding result", "setting": "[3]", "result": "binds"}]}, {"sequence": "GCCAAGGACCGAGGCCCCAACUGACAGUUUCAACAAGCG [7K-58]", "values": [{"measurement": "binding result", "setting": "[3]", "result": "binds"}]}, {"sequence": "UAUACCACAGCCUGAGAUUAACCACCAACCCAGGACU [VWF R9.2]", "values": [{"measurement": "selection result", "setting": "[1]", "result": "selected"}]}, {"sequence": "UGGACGAACUGCCCUCAGCUACUUUCAUGUUGCUGACGCA [VWF R9.14]", "values": [{"measurement": "selection result", "setting": "[1]", "result": "selected"}]}]}
